For two molecules, binding results are on record in publication PMC12344293, “A new class of binding-protein dependent solute transporter exemplified by the TAXI-GltS system from Bordetella pertussis” (Communications Biology, 2025).

Results are given in words; binding and its absence hold for the method and conditions named.

For assay [1], the target named is BP0403 N-terminal domain (BP0403NTD) (Bordetella pertussis) (UniProt Q7VSK8). The experiment in a line: SEC; Superdex 200 Increase 10/300 GL, 0.5 ml/min, SEC buffer (50 mM Tris-HCl pH 8, 100 mM NaCl, 5% glycerol); IMAC eluate incubated 20 min at room temperature with 5 mM EDTA and 100 mM glycerol before loading; elution volume compared with a calibration curve of molecular weight standards; both purified. In general terms: SEC sorts molecules by how far they enter the pores of the column.

Assay [2] addresses BP0403 C-terminal domain (BP0403SBP) (Bordetella pertussis) (UniProt Q7VSK8). The description is as above.

B1: BP0403 N-terminal domain (BP0403NTD) (domain or fragment, UniProt Q7VSK8 20-139)
chain: SRAPDTEILQRDVGQTLAATYGPDLFDIVALRRMGSATDSTAPPGQTRRVVYYDVVLGLKKDLTLGAWDQPGAAALVSLLGAGPRSISGVKSSGNAAGDQIVAHASAIYQRDAEQWVHVA
B1: the binding result in assay [1] is “no binding”.

B2: BP0403 C-terminal domain (BP0403SBP) (domain or fragment, UniProt Q7VSK8 208-503)
chain: YPLATGPDKGEYLAFGQALAAIGRNEQVRVIPLITGGSADNMAMLRSGAAVAALSQADIAQLAYEGKGPFESQGPFSGLRALGSLYPELVHIVVRQGDGIATVGALRGKKIALGPSGSAVRTTLETVLAAHGLQPGRDYAVIDTPAAAALPQLSEGRVDAVAQVIGTPAAPLRAALTQARLALLPLDRAAIDKLVQADPTLMALDIPANTYPSQAAAIPTVGMAALLVTTADLTRDEAAHMVDVVYRAGQDLLAAGSAQGAQVSAANAGRGLSIPLHDGAVEAFEKLGAPPLPEGR
In the case of B2, the binding entry in assay [2] is listed as “no binding”.
